The record followed here is publication PMC6078952.

By UniProt entry, the sequences of proteins in these tests, tags left out. Where a name states a change or a piece, a line headed by the entry shows the natural chain unless it says otherwise.
UniProt P00742: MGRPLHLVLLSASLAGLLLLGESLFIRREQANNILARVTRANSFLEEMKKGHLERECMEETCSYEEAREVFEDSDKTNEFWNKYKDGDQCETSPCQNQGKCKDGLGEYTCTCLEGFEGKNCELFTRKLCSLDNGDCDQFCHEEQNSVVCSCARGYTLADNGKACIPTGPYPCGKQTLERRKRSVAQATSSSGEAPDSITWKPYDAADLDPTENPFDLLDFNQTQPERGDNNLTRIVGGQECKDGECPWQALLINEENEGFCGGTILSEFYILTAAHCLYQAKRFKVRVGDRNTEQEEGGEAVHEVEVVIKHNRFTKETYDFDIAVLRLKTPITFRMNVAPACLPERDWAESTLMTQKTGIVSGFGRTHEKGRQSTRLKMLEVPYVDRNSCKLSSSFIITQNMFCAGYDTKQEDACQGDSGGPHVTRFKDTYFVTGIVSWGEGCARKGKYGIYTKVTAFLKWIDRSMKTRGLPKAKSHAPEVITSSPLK
UniProt Q6UW88: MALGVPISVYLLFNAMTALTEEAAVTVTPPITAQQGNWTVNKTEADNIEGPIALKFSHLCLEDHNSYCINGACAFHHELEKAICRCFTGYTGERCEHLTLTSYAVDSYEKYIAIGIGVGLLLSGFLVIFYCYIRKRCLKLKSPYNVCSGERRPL
UniProt P00747: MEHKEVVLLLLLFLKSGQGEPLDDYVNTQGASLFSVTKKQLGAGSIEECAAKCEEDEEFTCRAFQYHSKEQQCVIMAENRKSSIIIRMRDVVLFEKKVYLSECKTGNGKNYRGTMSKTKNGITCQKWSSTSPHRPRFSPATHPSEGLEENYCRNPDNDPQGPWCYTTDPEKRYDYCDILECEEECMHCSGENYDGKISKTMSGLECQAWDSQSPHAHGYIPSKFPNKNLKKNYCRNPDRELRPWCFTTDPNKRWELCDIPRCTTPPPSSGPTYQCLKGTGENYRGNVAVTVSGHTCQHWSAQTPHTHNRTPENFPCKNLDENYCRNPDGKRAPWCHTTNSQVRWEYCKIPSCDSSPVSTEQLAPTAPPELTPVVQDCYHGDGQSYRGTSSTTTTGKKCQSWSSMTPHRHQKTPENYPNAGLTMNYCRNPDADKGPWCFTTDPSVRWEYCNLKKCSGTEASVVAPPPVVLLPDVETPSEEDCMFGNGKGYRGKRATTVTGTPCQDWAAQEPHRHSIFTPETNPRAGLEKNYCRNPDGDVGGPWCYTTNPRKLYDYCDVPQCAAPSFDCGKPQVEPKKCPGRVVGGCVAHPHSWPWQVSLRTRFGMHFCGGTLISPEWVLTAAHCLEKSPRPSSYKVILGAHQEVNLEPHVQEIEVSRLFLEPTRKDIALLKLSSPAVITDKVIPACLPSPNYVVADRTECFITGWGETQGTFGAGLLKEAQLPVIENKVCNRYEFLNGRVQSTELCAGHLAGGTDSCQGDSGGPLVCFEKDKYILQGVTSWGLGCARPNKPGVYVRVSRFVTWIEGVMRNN

Results are given in words; binding and its absence hold for the method and conditions named. For part of these data: Binding calls can cover weak binding; strength is not graded here.

Some targets named below: Fibronectin (plasma); Coagulation factor X (UniProt P00742); Superoxide dismutase; Glypican 6; Fibronectin (cellular); Epigen (UniProt Q6UW88); Plasminogen (UniProt P00747).
Common to all, as to experiment: SPR; SPR imaging (SPRi, Biacore Flexchip): partners spotted in triplicate on a bare gold chip at 0.06 to 1 mg/ml; purified LOX-PP injected at 2 µM and recirculated for 20 min; PBS with 0.05% Tween 20, 25 °C; both purified
Experiment [1] deals with Vascular endothelial growth factor (VEGF).
For experiment [2], the target named is Transglutaminase-2 (TG-2) (guinea pig) (guinea pig).

B1: Lysyl oxidase propeptide (LOX-PP) (Pro24Leu) (domain or fragment, UniProt P28300 22-168)
chain: APLAAGQQQPPREPPAAPGAWRQQIQWENNGQVFSLLSLGSQYQPQRRRDPGAAVPGAANASAQQPRTPILLIRDNRTAAARTRTAGSSGVTAGRPRPTARHWFQAGYSTSRAREAGASRAENQTAPGEVPALSNLRPPSRVDGMVG
modifications: N-linked glycans (removed by PNGase F)
Consider B1, for which the binding result with Fibronectin (plasma) is “no binding (tested: 2 µM)”; in experiment [1], “no binding (tested: 2 µM)”; with Coagulation factor X, “no binding (tested: 2 µM)”; with Superoxide dismutase, “binds”; in the experiment with Glypican 6 it was “no binding (tested: 2 µM)”; with Fibronectin (cellular), “binds”. In addition, the binding result with Epigen is listed as “no binding (tested: 2 µM)”; in [2], “no binding (tested: 2 µM)”; with Plasminogen it was “binds”.
